Data taken from PubChem BioAssay AID504749, deposited by NCATS (2011).

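Malaria parasite (P. falciparum) lines kept in red blood cells; parasite DNA is measured by SYBR Green fluorescence after lysis, 72 h after compound addition.
Each compound was titrated across a series from about 0.000037 to 29 µM.
The number is the fitted AC50, the concentration giving a half-maximal change in signal; a lower value means higher potency, whether the curve shows a decrease or an increase.
Calls follow the curve class and fit quality: every row here is inconclusive, covering signal-raising curves and weak, poorly fitted, partial or highest-dose-only inhibition curves.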

Values are in µM.
Every entry below has the call inconclusive.
Only part of the assay is shown, chiefly results filed as inconclusive.
A potency from a partial, single-point or poor curve is only a rough figure.
Some entries filed as inconclusive have a full curve.
The first word of each remark tells which way the curve ran; it can be opposite to the aim of the assay.

compound: O=C(CCCN1CCC(O)(c2ccc(Br)cc2)CC1)c1ccc(F)cc1
condition: CP194
Potency (µM): 6.424
remark: inhibitor, single point

compound: O=C(CCCN1CCC(O)(c2ccc(Br)cc2)CC1)c1ccc(F)cc1
condition: CP247
Potency (µM): 7.08
remark: inhibitor, single point

compound: Cc1cc(N)c2cc(NC(=O)Nc3ccc4nc(C)cc(N)c4c3)ccc2n1
condition: PC49
Potency (µM): 11.22
remark: inhibitor, partial curve, poor fit

compound: Cc1cc(N)c2cc(NC(=O)Nc3ccc4nc(C)cc(N)c4c3)ccc2n1
condition: PC15
Potency (µM): 7.943
remark: inhibitor, partial curve

compound: Cc1cc(N)c2cc(NC(=O)Nc3ccc4nc(C)cc(N)c4c3)ccc2n1
condition: CP268
Potency (µM): 5.358
remark: inhibitor, partial curve

compound: Cc1cc(N)c2cc(NC(=O)Nc3ccc4nc(C)cc(N)c4c3)ccc2n1
condition: CP201
Potency (µM): 1.51
remark: inhibitor, partial curve

compound: Cc1cc(N)c2cc(NC(=O)Nc3ccc4nc(C)cc(N)c4c3)ccc2n1
condition: CP266
Potency (µM): 0.4256
remark: inhibitor, full curve

compound: Cc1cc(N)c2cc(NC(=O)Nc3ccc4nc(C)cc(N)c4c3)ccc2n1
condition: CP194
Potency (µM): 2.686
remark: inhibitor, partial curve, poor fit

compound: Cc1cc(N)c2cc(NC(=O)Nc3ccc4nc(C)cc(N)c4c3)ccc2n1
condition: P93_24
Potency (µM): 7.943
remark: inhibitor, partial curve, poor fit

compound: Cc1cc(N)c2cc(NC(=O)Nc3ccc4nc(C)cc(N)c4c3)ccc2n1
condition: PC26
Potency (µM): 0.6012
remark: inhibitor, full curve

compound: Cc1cc(N)c2cc(NC(=O)Nc3ccc4nc(C)cc(N)c4c3)ccc2n1
condition: CP325
Potency (µM): 2.133
remark: inhibitor, partial curve

compound: Cc1cc(N)c2cc(NC(=O)Nc3ccc4nc(C)cc(N)c4c3)ccc2n1
condition: CP215
Potency (µM): 4.256
remark: inhibitor, partial curve

compound: Nc1ccc(S(=O)(=O)Nc2ccc(Cl)nn2)cc1
condition: TAB109
Potency (µM): 1.585
remark: inhibitor, single point

compound: Nc1ccc(S(=O)(=O)Nc2ccc(Cl)nn2)cc1
condition: CP265
Potency (µM): 1
remark: inhibitor, single point

compound: Nc1ccc(S(=O)(=O)Nc2ccc(Cl)nn2)cc1
condition: CP217
Potency (µM): 1.585
remark: inhibitor, single point

compound: Nc1ccc(S(=O)(=O)Nc2ccc(Cl)nn2)cc1
condition: SC27B
Potency (µM): 1.585
remark: inhibitor, single point

compound: Nc1ccc(S(=O)(=O)Nc2ccc(Cl)nn2)cc1
condition: AS120
Potency (µM): 1.585
remark: inhibitor, single point

compound: Nc1ccc(S(=O)(=O)Nc2ccc(Cl)nn2)cc1
condition: FAB9
Potency (µM): 1
remark: inhibitor, single point

compound: Nc1ccc(S(=O)(=O)Nc2ccc(Cl)nn2)cc1
condition: CP262
Potency (µM): 8.087
remark: activator, partial curve, poor fit

compound: Nc1ccc(S(=O)(=O)Nc2ccc(Cl)nn2)cc1
condition: CP256
Potency (µM): 1
remark: inhibitor, single point

compound: Nc1ccc(S(=O)(=O)Nc2ccc(Cl)nn2)cc1
condition: CP185
Potency (µM): 1.122
remark: inhibitor, single point

compound: Nc1ccc(S(=O)(=O)Nc2ccc(Cl)nn2)cc1
condition: Dd2
Potency (µM): 1.122
remark: inhibitor, single point

compound: Nc1ccc(S(=O)(=O)Nc2ccc(Cl)nn2)cc1
condition: ECU
Potency (µM): 1.585
remark: inhibitor, single point

compound: Nc1ccc(S(=O)(=O)Nc2ccc(Cl)nn2)cc1
condition: P94_40
Potency (µM): 1.585
remark: inhibitor, single point

compound: Nc1ccc(S(=O)(=O)Nc2ccc(Cl)nn2)cc1
condition: CP247
Potency (µM): 1.413
remark: inhibitor, single point

compound: Nc1ccc(S(=O)(=O)Nc2ccc(Cl)nn2)cc1
condition: CP335
Potency (µM): 1.811
remark: inhibitor, partial curve, poor fit

compound: Nc1ccc(S(=O)(=O)Nc2ccc(Cl)nn2)cc1
condition: N140
Potency (µM): 1.413
remark: inhibitor, single point

compound: Nc1ccc(S(=O)(=O)Nc2ccc(Cl)nn2)cc1
condition: ATS189
Potency (µM): 1.585
remark: inhibitor, single point

compound: Nc1ccc(S(=O)(=O)Nc2ccc(Cl)nn2)cc1
condition: TAB113
Potency (µM): 1.585
remark: inhibitor, single point

compound: Nc1ccc(S(=O)(=O)Nc2ccc(Cl)nn2)cc1
condition: PAD
Potency (µM): 1.585
remark: inhibitor, single point

compound: Nc1ccc(S(=O)(=O)Nc2ccc(Cl)nn2)cc1
condition: PC15
Potency (µM): 1.259
remark: inhibitor, single point

compound: Nc1ccc(S(=O)(=O)Nc2ccc(Cl)nn2)cc1
condition: PC49
Potency (µM): 1.585
remark: inhibitor, single point

compound: Nc1ccc(S(=O)(=O)Nc2ccc(Cl)nn2)cc1
condition: CP252
Potency (µM): 1.585
remark: inhibitor, single point